From PMC3281933
Results are given in words; binding and its absence hold for the method and conditions named. In cells and extracts the contact can be indirect. For some assays here: Binding calls can cover weak binding; strength is not graded here.

Legend:
[1] = molecular target: T1, CCN1 (CYR61) (human (endogenous in 1064Sk human skin fibroblasts)) (UniProt O00622); test: co-IP; lysate of human skin fibroblasts (IP buffer: 20 mM Tris-HCl pH 7.5, 150 mM NaCl, 1 mM MgCl2, 1 mM CaCl2, 1% Triton X-100) precipitated with rabbit polyclonal anti-CCN1 antibody overnight at 4°C, Protein A/G agarose; 515 kDa LRP1 subunit blotted under non-reducing conditions
T1 sequence: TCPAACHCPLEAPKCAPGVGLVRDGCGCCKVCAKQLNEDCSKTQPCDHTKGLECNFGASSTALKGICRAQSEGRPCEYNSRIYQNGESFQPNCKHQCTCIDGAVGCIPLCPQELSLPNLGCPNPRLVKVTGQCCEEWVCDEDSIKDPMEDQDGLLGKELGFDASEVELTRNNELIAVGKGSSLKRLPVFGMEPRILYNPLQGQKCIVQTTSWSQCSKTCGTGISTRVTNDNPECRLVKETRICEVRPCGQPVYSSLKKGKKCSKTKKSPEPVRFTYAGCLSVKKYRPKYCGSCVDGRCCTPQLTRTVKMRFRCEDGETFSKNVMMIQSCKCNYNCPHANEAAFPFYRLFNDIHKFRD

[2] = molecular target: T1, CCN1 (CYR61) (human (endogenous in 1064Sk human skin fibroblasts)); test: condition: only after pre-incubation of cells with 1 µM RAP; co-IP; as a1, but 1 µM recombinant RAP added to the medium and incubated with the cells for 30 min before cell lysis

low density lipoprotein receptor-related protein 1 (LRP1)
binding [1]: binds
binding [2]: no binding
